Reference: PubChem BioAssay AID743454 (Peter MacCallum Cancer Centre, 2014)

Assay: 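Search for knock-downs that restore vorinostat killing in resistant colon cancer cells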 (primary screen)
System: human HCT116-VR colon cancer cells, selected for vorinostat resistance
Knock-down reagent: siRNA pool against human genes, 40 nM siRNA pool
Duration: vorinostat for 24 h, read-out about 72 h after transfection
Challenge: vorinostat at 2.5 µM final
Detection: 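Cell viability by CellTiter-Fluor and caspase 3/7 activity by luminescence, each scaled to mock wells per plate, duplicates averaged, then robust z-scored over all plates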
Scale: viability robust z-score: higher = more viable cells than screen typical; caspase robust z-score: higher = more caspase 3/7 activity than screen typical
Active means: 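a knock-down is a hit when classed RV1 or RV2 for lowered viability, or CA1 or CA2 for caspase activation; those lethal without drug were dropped; hits were retested singly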
Shown is a random part of about 18,000 reagents. Of all reagents, 450 (2.5%) were called active. 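Single biological run; no consistent viability z cut-off exists, so the class columns, not z-scores, define the calls.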

no.	gene	viability hit class	caspase hit class	viability robust z-score	caspase robust z-score	activity call
1	RNASE3	no change	no change	-0.26	0.84	inactive
2	KRTAP27-1	no change	CA2 (caspase activation)	-1.18	5.94	active
3	METTL2B	no change	no change	-2.25	0.13	inactive
4	CDK5	no change	no change	-0.06	1.31	inactive
5	NAPA	no change	no change	-6.4	0.1	inactive
6	EPAS1	no change	no change	0.77	-0.26	inactive
7	USP32	no change	no change	-0.24	-1.02	inactive
8	TTYH2	no change	no change	-0.14	-0.1	inactive
9	CLN5	no change	no change	0.23	1.43	inactive
10	KRT71	no change	no change	-0.57	-0.83	inactive
11	IGF2R	no change	no change	0.1	-0.78	inactive
12	FKBP8	no change	no change	-1.01	1.89	inactive
13	SNTA1	no change	no change	-1.12	-0.2	inactive
14	PCGF1	no change	no change	-0.37	1.46	inactive
15	FGF18	no change	no change	0.19	0.44	inactive
16	SIRPA	no change	no change	-0.11	-0.52	inactive
17	CDHR2	no change	no change	0.29	-0.84	inactive
18	RBMX	no change	no change	-0.81	1.47	inactive
19	MS4A4A	no change	no change	-0.66	-0.66	inactive
20	C4orf51	no change	no change	-0.27	0.2	inactive
21	SLC35G5	no change	no change	-0.58	1.48	inactive
22	IPPK	no change	no change	0.26	0.6	inactive
23	SCFD1	no change	no change	-0.96	-1	inactive

Called active, among the entries above:
gene	viability hit class	caspase hit class	viability robust z-score	caspase robust z-score	activity call
KRTAP27-1	no change	CA2 (caspase activation)	-1.18	5.94	active
